Test results as given in patent publication US10925855B2, “Compositions comprising water dispersible nanoparticles of a retinoid compound” (GALDERMA RESEARCH & DEVELOPMENT, priority 2015, dated 2021).
This continues a long series; more values of the same kind are listed elsewhere.

Experiment: Stabilizer screening (colloid stability after precipitation)
Format: physicochemical
Settings: Compound A 1.0 mg, 1 mL EtOH
Method: If the colloid solution was stable over 2 hours (no aggregation, sedimentation, crystal forming), and no aggregation occurred, the sample was lyophilized. • If precipitation occurred, however the colloid solution was not stable over the whole solid formulation procedure, other stabilizers were tested. Results

Measured: Observation

CC(C)(C)c1cc(-c2cc(-c3ccc(C(=O)O)cc3)ccc2OCCO)ccc1N1CCCC1 [Compound A, 3″-tert-butyl-4′-(2-hydroxyethoxy)-4″-pyrrolidin-1-yl[1,1′;3′,1″]-terphenyl-4-carboxylic acid]
Aggregated immediately: 2 mg PEOX50, 7 mL 0.05 mg/mL BAC solution | 2 mg PEOX50, 7 mL 0.05 mg/mL DSS solution | 2 mg PEOX50, 7 mL 0.05 mg/mL Mannitol solution | 2 mg PEOX50, 7 mL 0.05 mg/mL NaOAc solution | 2 mg PEOX50, 7 mL 0.05 mg/mL SDS solution | 2 mg PEOX50, 7 mL 0.05 mg/mL citric acid solution | 2 mg PEOX50, 7 mL 0.5 mg/mL BAC solution | 2 mg PEOX50, 7 mL 0.5 mg/mL Mannitol solution | 2 mg PVP10, 7 mL 0.5 mg/mL citric acid solution
